At least one compound was matched to its structure with a doubt left.
Tested on: NCC-HN1, NCC-HN120M and NCC-HN182M cells
Assay: Cell proliferation assay and IC50 determination, TKI and EV co-treatment, HNSCC cell line panel
Assay type: cell-based, human
Conditions: EV from HN19 and HN137P applied to HN1, HN120M

For `CN(C)C/C=C/C(=O)Nc1cc2c(Nc3ccc(F)c(Cl)c3)ncnc2cc1O[C@H]1CCOC1` [afatinib], the “sensitivity of TKI-resistant cells to the TKI on application of EVs from sensitive cells” value was “sensitises these resistant cells”.
